# Source: PubChem BioAssay AID504327 (National Center for Advancing Translational Sciences (NCATS), 2011)
# Sequences of proteins named here, by UniProt entry; tags and fusion partners are left off.
# UniProt Q92830, whole entry, looked up: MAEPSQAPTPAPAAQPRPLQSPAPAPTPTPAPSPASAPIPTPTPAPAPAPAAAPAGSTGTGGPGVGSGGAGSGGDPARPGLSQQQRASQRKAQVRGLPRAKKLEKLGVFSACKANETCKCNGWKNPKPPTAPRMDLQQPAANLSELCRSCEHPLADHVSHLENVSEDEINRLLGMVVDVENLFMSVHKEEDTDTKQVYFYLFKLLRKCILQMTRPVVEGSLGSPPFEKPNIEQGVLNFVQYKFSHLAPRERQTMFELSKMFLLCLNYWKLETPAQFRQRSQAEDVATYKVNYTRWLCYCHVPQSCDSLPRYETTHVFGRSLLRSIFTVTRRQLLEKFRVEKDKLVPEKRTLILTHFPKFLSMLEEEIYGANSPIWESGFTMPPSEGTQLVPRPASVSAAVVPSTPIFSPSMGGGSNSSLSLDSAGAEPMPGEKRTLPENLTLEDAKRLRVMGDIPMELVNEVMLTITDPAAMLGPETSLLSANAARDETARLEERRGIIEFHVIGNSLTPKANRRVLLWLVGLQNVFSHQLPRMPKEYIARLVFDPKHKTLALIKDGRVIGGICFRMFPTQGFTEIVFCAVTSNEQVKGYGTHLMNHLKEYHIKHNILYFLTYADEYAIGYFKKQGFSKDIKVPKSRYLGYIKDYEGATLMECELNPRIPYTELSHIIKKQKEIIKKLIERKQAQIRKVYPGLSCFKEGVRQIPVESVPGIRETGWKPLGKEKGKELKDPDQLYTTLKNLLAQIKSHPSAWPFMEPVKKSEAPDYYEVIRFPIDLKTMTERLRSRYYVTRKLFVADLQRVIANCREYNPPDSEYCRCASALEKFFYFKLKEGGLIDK
# Among all 390,000 compounds or so, about 820 (0.21%) were called active. The shares of active, inactive and inconclusive entries below differ from those in the screen. Calls come from the whole dose curve; as a rule, active = well fitted inhibition curve with a large enough effect; inconclusive = small, poorly fitted or top-dose-only effect, or another doubt; inactive = no such curve, though single readings can be large or run the other way. A potency beside an inconclusive call is a rough fit, not a confirmed value.
# Molecular target: Histone acetyltransferase KAT2A (Homo sapiens) (UniProt Q92830)
# Assay: qHTS Assay for Inhibitors of GCN5L2
# Settings: GCN5L2 HAT assay, ThioGlo1 CoA-SH fluorescence; activity change, negative = inhibition: at 58.9 µM (top of the series) unless noted
# Source text: Histone acetyltransferase (HAT) enzymes transfer a […] group from acetyl-coenzyme A to the epsilon-amino group of conserved lysine residues of N-terminal histone tails. Acetylation results in charge neutralization of this positively charged amino acid, decreasing interactions with the […] backbone and making the DNA more accessible for transcription. HATs have been recognized as an emerging drug target for treatment of cancer, diabetes, asthma, chronic obstructive pulmonary disease, cardiac disease, and viral infection. Protein identified with HAT activity include the […] like 2 (GCN5L2, a.ka. Histone acetyltransferase KAT2A) which acetylates histone H3 at Lys9, 14, 18, 13, and to lesser extent histones H4 and H2B. This activates transcription of the gene by modulating chromatin structure and installing the acetyllysine recognition mark for bromodomain-containing coactivator proteins.
# A quantitative high throughput screen was developed to identify small molecule inhibitors. The assay is based on the principle that it measures formation of reduced CoA with the pro-fluorescent maleimide derivative ThioGlo1 that becomes fluorescent upon reaction with the free thiol of CoA.
# A large number of artifacts are expected in this primary screen, compounded by the assay format (fluorescent artifacts) and by the high top concentration tested for each substance. This BioAssay data deposition should be used with caution, and counterscreen and secondary assay validation is essential since very few actives from the primary screen are expected to be true inhibitors of GCN5L2.
# [2] Yasgar, et al. Compound Management for Quantitative High-Throughput Screening. JALA. 2008 Apr;13(2):79-89.
# [3] Inglese, et al. Quantitative high-throughput screening: a titration-based approach that efficiently identifies biological activities in large chemical libraries. Proc Natl Acad Sci. 1;103(31):11473-8. 2006. PMID: 16864780
# NIH Molecular Libraries Probe Production Network [MLPCN]
# NIH Chemical Genomics Center [NCGC]
# Structural Genomics Consortium (SGC)
# To each well of a 1,536w plate, 3ul of GCN5L2 (final concentration 20nM, in 50mM HEPES, 0.1mM EDTA (pH 7.5), 0.01% Tween-20 buffer) are added using a Kalypsys dispenser. Only buffer is added to some wells as a control. A Kalypsys pin-tool transferred 23nl of library compound solution in DMSO to each well, as well as the control inhibit garcinol. . Following a 15 min incubation of enzyme with compounds at room temperature, 1ul mixture of ThioGlo1 (50uM final), H3(1-25) peptide (75uM final), and Acetyl-CoA (70uM final) is added. Plates are read immediately on the ViewLux (PerkinElmer) (Ex340nm/Em540nm) for a 0 min read, incubated for 20 min at room temperature, and read again on the ViewLux with the same settings. The initial read was carried out to identify compounds that are potentially fluorescent.
# % is set by controls: 0 for no effect and ±100 for the full control effect; potency is the fitted concentration of half-maximal effect.
SMILES,"activity change, negative = inhibition",Potency
COc1ccc(Cl)cc1N=C1NC(=O)CC(C(=O)Nc2ccccc2C(F)(F)F)S1 (stereo not given),inactive: 0.151%,
Fc1ccccc1COc1ccc(/C=N/NC(=S)NCc2ccccc2)cc1,inactive: -4.59%,
C[C@@]12C(=O)Nc3ccc(Br)cc3C(=O)N1[C@H]1c3ccccc3OC[C@@H]1[C@@H]2c1ccccc1,inactive: -7.2%,
CC(=O)c1cccc(-n2nnnc2SCC(=O)N2CCCC2)c1,,"inconclusive: 39.8 µM [inhibitor, single point]"
C=C1CCC[C@]2(C)C[C@H]3OC(=O)C(CNCC(C)C)[C@H]3CC12 (stereo not given in full),inactive: -15.5%,
Cc1cc(C(=O)OCC(=O)Nc2sc3c(c2C#N)CCC(C)C3)c2ccccc2n1 (stereo not given),,"inconclusive: 17.8 µM [inhibitor, partial curve]"
CCOC(=O)CCCSc1nnc(CCCCCN2C(=O)c3cccc4cccc(c34)C2=O)o1,,"inconclusive: 25.1 µM [inhibitor, single point]"
N#CC1(NC(=O)CSc2nnc(C3CC3)n2C2CC2)CCCCC1,inactive: -2.54%,
CCn1c(SCC(=O)Nc2ccccc2OC)nc(O)cc1=O,,"inconclusive: 35.5 µM [inhibitor, single point]"
O=C(Cn1cc(C(F)(F)F)cc(Cl)c1=O)NCCc1ccc(Cl)cc1Cl,,"inconclusive: 39.8 µM [inhibitor, single point]"
O=C(O)COc1ccc(/C=C/C(=O)c2ccc(C3CCCCC3)cc2)cc1,,"inconclusive: 39.8 µM [inhibitor, single point]"
C#Cc1ccc(CN2CCC(Oc3cc(C(=O)NC4CC4)ccc3OC)CC2)cc1,inactive: -5.57%,
Cc1ccc(NS(=O)(=O)c2c(C)nc3sccn3c2=O)c(Cl)c1,inactive: -5.14%,
Cc1cccc(C)c1NC(=O)CN(C)C(=O)c1cccc(-n2cccc2)c1,,"inconclusive: 28.2 µM [inhibitor, single point]"
COc1ccc(NC(=O)C2=CC(c3ccc(OC)cc3)=NS(=O)(=O)N2C)cc1,,"inconclusive: 0.141 µM [inhibitor, full curve, poor fit]"
CN1C(=O)C(CC(=O)Nc2ccc(Cl)cc2)N(Cc2ccco2)C1=S (stereo not given),inactive: -6.78%,
NC(=O)c1ccc(-c2nc(-c3ccc4c(c3)OCO4)c(-c3ccccn3)[nH]2)cc1,,"inconclusive: 25.1 µM [inhibitor, partial curve]"
CC(C)c1nc(Cl)c(C#N)c2c1CCC2,,"inconclusive: 3.16 µM [inhibitor, partial curve]"
N#Cc1nc(-c2ccco2)oc1NCCc1ccccc1,,"inconclusive: 1.58 µM [inhibitor, full curve, poor fit]"
COc1ccc(Nc2ccc3cc(S(=O)(=O)N4CCCC4)ccc3n2)cc1OC,inactive: -8.87%,
O=C(Nc1ccc(Br)cc1)N1CCCCCCC1,,"inconclusive: 31.6 µM [inhibitor, single point]"
CCCCn1nc2cc(C(=O)NC3CCc4ccccc43)ccc2c1OCC (stereo not given),,"inconclusive: 31.6 µM [inhibitor, single point]"
O=C(OCc1cn(Cc2ccccc2)nn1)c1ccccc1,,"inconclusive: 0.708 µM [inhibitor, full curve, poor fit]"
CC(C)C(C(=O)O)N1C(=O)/C(=C/c2ccc(Br)cc2)SC1=S (stereo not given),,"inconclusive: 31.6 µM [inhibitor, single point]"

SMILES,"activity change, negative = inhibition",Potency
Cc1c(NC(=O)c2cnn3c2NC(c2ccccc2)CC3C(F)(F)F)c(=O)n(-c2ccccc2)n1C (stereo not given),inactive: -11.4%,
O=C(COc1ccc(F)cc1)OCc1cc(=O)n2nc(-c3cccs3)sc2n1,,"inconclusive: 0.562 µM [inhibitor, single point]"
CCN1CCN(CNC(=O)c2cnccn2)CC1,inactive: -0.592%,
COc1cccc(CNS(=O)(=O)c2c(C(=O)N3CCC(C)CC3)c(C)n(C)c2C)c1,inactive: -9.53%,
COc1ccccc1C1CC(=O)Oc2ccc(C(C)(C)C)cc21 (stereo not given),,"inconclusive: 44.7 µM [inhibitor, partial curve, poor fit]"
Cc1ccc(C)c(Sc2ccc(S(=O)(=O)Nc3ccc(C(=O)O)cc3)cc2)c1,,"inconclusive: 39.8 µM [inhibitor, single point]"
Cc1cccc(N(CC(=O)NC2CCCC2)C(=O)c2c(C)noc2C)c1,,"inconclusive: 15.8 µM [inhibitor, partial curve]"
Cc1oc2c(CN3CCCC3)c(O)ccc2c(=O)c1Oc1ccccc1Br,,"inconclusive: 39.8 µM [inhibitor, single point]"
O=C1C(=O)N(C2CCN(C(=O)c3ccccc3F)CC2)CCN1Cc1ccc(F)cc1,inactive: 2.48%,
COc1ccccc1N1CCN(C(=O)CSc2ncnc3scc(-c4ccccc4)c23)CC1,inactive: 36.7%,
COc1ccc(C(=O)N/N=C/c2sc(=O)n(Cc3cccc(C(=O)O)c3)c2Cl)cc1,,"inconclusive: 0.562 µM [inhibitor, full curve, poor fit]"
CCCC1=NN2C(=N)/C(=C\c3ccc(SCc4ccco4)o3)C(=O)N=C2S1,,"inconclusive: 35.5 µM [inhibitor, single point]"
COc1ccc(C)c2sc(NC(=O)C3CC3)nc12,,"inconclusive: 25.1 µM [inhibitor, partial curve]"
Cc1ccc(S(=O)(=O)c2nc(-c3ccccc3Cl)oc2NCCCN2CCOCC2)cc1,,"inconclusive: 0.708 µM [inhibitor, full curve, poor fit]"
O=C(O)c1cc2ccc3ccccc3c2oc1=O,,"inconclusive: 31.6 µM [inhibitor, single point]"
CCOC(=O)c1c(NC(=O)CC)sc(C(=O)NC2CCCC2)c1C,inactive: -1.1%,
CCC(=O)N1CCc2cc(S(=O)(=O)N(C)c3ccc(OC)cc3OC)ccc21,,"inconclusive: 8.91 µM [inhibitor, single point]"
Nc1ccc(C(=O)Oc2ccccc2)c(O)c1,inactive: -12.4%,
Brc1nc(Br)n(Cc2ccccc2)n1,inactive: 25.1%,
O=C(O)C1C2CCC(CC2)C1C(=O)N1CCN(Cc2ccc(F)cc2)CC1 (stereo not given),inactive: -6.78%,
CC1CC(C)CN(CCCNC(=O)CCC(=O)N2CCOc3ccccc32)C1 (stereo not given),,"inconclusive: 8.91 µM [inhibitor, single point]"
Nc1ccccc1C#CCCCCO,inactive: 1.02%,
CCCOc1ccc(-c2cc(C(F)(F)F)c(C#N)c(SCCC(=O)O)n2)cc1,,"inconclusive: 35.5 µM [inhibitor, single point]"
CCOCCCNc1c(CC)c(C)c(C#N)c2nc3ccccc3n12,,"inconclusive: 0.794 µM [inhibitor, single point]"

# Three structures out of the list, arranged by length of the SMILES, low to high:
SMILES,"activity change, negative = inhibition",Potency
Nc1ccccc1C#CCCCCO,inactive: 1.02%,
CCn1c(SCC(=O)Nc2ccccc2OC)nc(O)cc1=O,,"inconclusive: 35.5 µM [inhibitor, single point]"
CC1CC(C)CN(CCCNC(=O)CCC(=O)N2CCOc3ccccc32)C1 (stereo not given),,"inconclusive: 8.91 µM [inhibitor, single point]"

# More results:

SMILES,"activity change, negative = inhibition",Potency
O=C(O)c1ccc(S(=O)(=O)NC2CCCc3ccccc32)cc1 (stereo not given),,"inconclusive: 39.8 µM [inhibitor, single point]"
CCCC(=O)Nc1ccc(NC(=O)c2ccccc2OC)cn1,,active: 2.24 µM
Cc1c(-c2cccc(NC(=O)c3ccco3)c2)nc2ncccn12,,"inconclusive: 31.6 µM [inhibitor, single point]"
CCCCC(=O)Nc1ccc(N2CCN(C(=O)CC)CC2)cc1,,"inconclusive: 0.708 µM [inhibitor, single point]"
Cc1ccc(C2c3c(oc4ccccc4c3=O)C(=O)N2c2nnc(C)s2)cc1 (stereo not given),inactive: 2.22%,
S=c1[nH]nc(Nc2cccc3ccccc23)s1,,"inconclusive: 20 µM [inhibitor, partial curve]"
COc1ccccc1C1=NOC(C)(c2nnc(Cc3ccccc3)o2)C1 (stereo not given),,"inconclusive: 7.08 µM [inhibitor, single point]"
Fc1cnc(Cl)nc1NC1CCCCC1,inactive: -0.555%,
CC(=O)c1ccc(NC(=O)C(C)n2c3ccccc3c3nc(=O)cc(C)n32)cc1 (stereo not given),,"inconclusive: 0.141 µM [inhibitor, full curve, poor fit]"
COc1cc(N=c2ssnc2Cl)cc(OC)c1OC,,active: 10 µM
CC1=NN(C(N)=S)C(=O)C1N=Nc1cccc2ccccc12 (stereo not given),inactive: -7.42%,
CC(OC(=O)Cn1c(C(F)(F)F)nc2ccccc21)C(N)=O (stereo not given),,"inconclusive: 20 µM [inhibitor, single point]"
Cc1cc(C)c2sc(N3CCN(C(=O)c4ccc(N(C)C)cc4)CC3)nc2c1,,"inconclusive: 14.1 µM [inhibitor, partial curve, poor fit]"
COc1ccc(-c2cn3c(C)c(C(=O)Nc4cccc(NC(C)=O)c4)sc3n2)cc1,,"inconclusive: 39.8 µM [inhibitor, single point]"
COC(=O)c1sc(N2C(=O)C(O)=C(C(=O)c3ccc(C)o3)C2c2ccc(OC)c(OC)c2)nc1C (stereo not given),,"inconclusive: 8.91 µM [inhibitor, partial curve, poor fit]"
Cc1nnc(SCCCn2c(N3CCCCC3)nc3c2c(=O)[nH]c(=O)n3C)s1,,"inconclusive: 4.47 µM [inhibitor, single point]"
CCCCCCCCCCCCCCC[C@@H](O)[C@@H](N)CO,,"inconclusive: 28.2 µM [inhibitor, single point]"
O=C(CN1C(=O)S/C(=C\c2cc(Cl)c(O)c(Cl)c2)C1=O)Nc1ccccc1,,"inconclusive: 39.8 µM [inhibitor, single point]"
O=c1oc2c(CN3CCOCC3)c(O)c(Cl)cc2c2c1CCC2,,"inconclusive: 12.6 µM [inhibitor, partial curve]"
N=c1sccn1CC(=O)Nc1ccccc1-c1ccccc1,,"inconclusive: 35.5 µM [inhibitor, single point]"
COc1ccc(N2CCN(C(=O)c3ccc(COc4ccc([N+](=O)[O-])cc4)o3)CC2)cc1,,"inconclusive: 4.47 µM [inhibitor, single point]"
Nc1cc(=O)[nH]c(SCC(=O)Nc2nnc(-c3ccccc3)s2)n1,,"inconclusive: 0.794 µM [inhibitor, single point]"
